{"source": "PubChem BioAssay AID1259254 (NCATS, 2017)", "purpose": "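Gene knock-downs that lead to re-replication, shown by excess G2 DNA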 (primary screen)", "cell system": "human HCT116 colorectal cancer cells", "knock-down reagent": "single siRNA against human genes", "timing": "3 days", "read-out": "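Imaged Hoechst DNA stain sorts each cell into a cycle phase by DNA amount; per plate, G2 fraction set to 0% for non-targeting and 100% for GMNN siRNA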", "reading the numbers": "G2 robust z-score: higher = more G2 cells, more excess DNA replication", "hit rule": "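An siRNA counts as active if its G2 robust z-score lies at least 5 MADs above the screen median; here such calls match roughly 38% of GMNN control or more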", "note": "Here is a random part of about 59,000 reagents tested. Over the whole deposit, about 1,550 (2.6%) got an active call. 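G2 share is only a proxy for re-replication; each gene was hit by three separate siRNAs, and active genes were retested.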 Reagents against one gene are numbered here. Not all columns of the deposit are shown. The record does not give: the amount of reagent."}
{"gene symbol":"H2AC4 (H2A clustered histone 4)","siRNA no.":1,"G2 robust z-score":0.399,"Outcome":"inactive"}
{"gene symbol":"H2AC4 (H2A clustered histone 4)","siRNA no.":2,"G2 robust z-score":-0.854,"Outcome":"inactive"}
{"gene symbol":"H2AC4 (H2A clustered histone 4)","siRNA no.":3,"G2 robust z-score":3.08,"Outcome":"inactive"}
{"gene symbol":"NAPG (NSF attachment protein gamma)","siRNA no.":1,"G2 robust z-score":0.118,"Outcome":"inactive"}
{"gene symbol":"NAPG (NSF attachment protein gamma)","siRNA no.":2,"G2 robust z-score":0.277,"Outcome":"inactive"}
{"gene symbol":"NAPG (NSF attachment protein gamma)","siRNA no.":3,"G2 robust z-score":0.439,"Outcome":"inactive"}
{"gene symbol":"SNRPN (small nuclear ribonucleoprotein polypeptide N)","siRNA no.":1,"G2 robust z-score":-1.2,"Outcome":"inactive"}
{"gene symbol":"SNRPN (small nuclear ribonucleoprotein polypeptide N)","siRNA no.":2,"G2 robust z-score":-0.701,"Outcome":"inactive"}
{"gene symbol":"SNRPN (small nuclear ribonucleoprotein polypeptide N)","siRNA no.":3,"G2 robust z-score":0.282,"Outcome":"inactive"}
{"gene symbol":"SNRPN (small nuclear ribonucleoprotein polypeptide N)","siRNA no.":4,"G2 robust z-score":0.376,"Outcome":"inactive"}
{"gene symbol":"SNRPN (small nuclear ribonucleoprotein polypeptide N)","siRNA no.":5,"G2 robust z-score":-0.298,"Outcome":"inactive"}
{"gene symbol":"SNRPN (small nuclear ribonucleoprotein polypeptide N)","siRNA no.":6,"G2 robust z-score":0.116,"Outcome":"inactive"}
{"gene symbol":"SNRPN (small nuclear ribonucleoprotein polypeptide N)","siRNA no.":7,"G2 robust z-score":3.12,"Outcome":"inactive"}
{"gene symbol":"SNRPN (small nuclear ribonucleoprotein polypeptide N)","siRNA no.":8,"G2 robust z-score":0.0642,"Outcome":"inactive"}
{"gene symbol":"SNRPN (small nuclear ribonucleoprotein polypeptide N)","siRNA no.":9,"G2 robust z-score":-0.0329,"Outcome":"inactive"}
{"gene symbol":"RASL12 (RAS like family 12)","siRNA no.":1,"G2 robust z-score":-1.37,"Outcome":"inactive"}
{"gene symbol":"RASL12 (RAS like family 12)","siRNA no.":2,"G2 robust z-score":0.414,"Outcome":"inactive"}
{"gene symbol":"RASL12 (RAS like family 12)","siRNA no.":3,"G2 robust z-score":2.97,"Outcome":"inactive"}
